Source: publication PMC8822707
These are yes or no findings as the source states them, for the method shown. In cells and extracts the contact can be indirect. Some entries that bind do so weakly or less than the wild type.

T1: Smad4 (human (endogenous in LoVo)), Q13485
T1 chain: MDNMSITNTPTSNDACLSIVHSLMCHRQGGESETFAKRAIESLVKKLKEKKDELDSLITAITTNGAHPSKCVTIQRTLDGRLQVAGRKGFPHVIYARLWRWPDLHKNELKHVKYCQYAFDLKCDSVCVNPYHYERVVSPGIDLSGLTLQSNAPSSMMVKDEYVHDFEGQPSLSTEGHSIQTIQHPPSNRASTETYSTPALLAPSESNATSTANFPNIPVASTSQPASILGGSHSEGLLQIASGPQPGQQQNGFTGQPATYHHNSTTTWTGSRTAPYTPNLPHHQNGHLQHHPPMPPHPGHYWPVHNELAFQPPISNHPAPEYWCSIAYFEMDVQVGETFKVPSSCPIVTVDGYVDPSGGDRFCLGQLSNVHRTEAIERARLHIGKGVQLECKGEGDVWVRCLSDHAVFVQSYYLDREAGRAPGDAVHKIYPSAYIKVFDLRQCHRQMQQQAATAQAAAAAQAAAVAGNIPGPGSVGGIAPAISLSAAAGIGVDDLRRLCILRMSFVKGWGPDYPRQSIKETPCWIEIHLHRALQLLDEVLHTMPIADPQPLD


Target: T1, Smad4 (human (endogenous in LoVo)), …
Test: co-IP; Smad4 antibody (1 μg) on protein A/G beads, incubated with LoVo cell lysates (800 μg protein); lysis buffer 50 mM Tris-HCl pH 7.5, 150 mM NaCl, 0.5% NP-40; wash buffer with 0.1% NP-40; western blot of Smad2 and Smad3; cells with circPTEN1 knockdown or reintroduction, treated with 5 ng/mL TGF-β1 for 1 h
Details: remark: other sources report otherwise

binding | Binder
binds | Smad3, P84022 1-425 (protein) MSSILPFTPPIVKRLLGWKKGEQNGQEEKWCEKAVKSLVKKLKKTGQLDELEKAITTQNVNTKCITIPRSLDGRLQVSHRKGLPHVIYCRLWRWPDLHSHHELRAMELCEFAFNMKKDEVCVNPYHYQRVETPVLPPVLVPRHTEIPAEFPPLDDYSHSIPENTNFPAGIEPQSNIPETPPPGYLSEDGETSDHQMNHSMDAGSPNLSPNPMSPAHNNLDLQPVTYCEPAFWCSISYYELNQRVGETFHASQPSMTVDGFTDPSNSERFCLGLLSNVNRNAAVELTRRHIGRGVRLYYIGGEVFAECLSDSAIFVQSPNCNQRYGWHPATVCKIPPGCNLKIFNNQEFAALLAQSVNQGFEAVYQLTRMCTIRMSFVKGWGAEYRRQTVTSTPCWIELHLNGPLQWLDKVLTQMGSPSIRCSSVS
binds | Smad2, Q15796 1-467 (protein) MSSILPFTPPVVKRLLGWKKSAGGSGGAGGGEQNGQEEKWCEKAVKSLVKKLKKTGRLDELEKAITTQNCNTKCVTIPSTCSEIWGLSTPNTIDQWDTTGLYSFSEQTRSLDGRLQVSHRKGLPHVIYCRLWRWPDLHSHHELKAIENCEYAFNLKKDEVCVNPYHYQRVETPVLPPVLVPRHTEILTELPPLDDYTHSIPENTNFPAGIEPQSNYIPETPPPGYISEDGETSDQQLNQSMDTGSPAELSPTTLSPVNHSLDLQPVTYSEPAFWCSIAYYELNQRVGETFHASQPSLTVDGFTDPSNSERFCLGLLSNVNRNATVEMTRRHIGRGVRLYYIGGEVFAECLSDSAIFVQSPNCNQRYGWHPATVCKIPPGCNLKIFNNQEFAALLAQSVNQGFEAVYQLTRMCTIRMSFVKGWGAEYRRQTVTSTPCWIELHLNGPLQWLDKVLTQMGSPSVRCSSMS
